{"sequences": {"note": "Sequences of proteins named here, by UniProt entry; tags and fusion partners are left off. Residues count along the entry.", "UniProt Q8TDQ0, residues 22-301": "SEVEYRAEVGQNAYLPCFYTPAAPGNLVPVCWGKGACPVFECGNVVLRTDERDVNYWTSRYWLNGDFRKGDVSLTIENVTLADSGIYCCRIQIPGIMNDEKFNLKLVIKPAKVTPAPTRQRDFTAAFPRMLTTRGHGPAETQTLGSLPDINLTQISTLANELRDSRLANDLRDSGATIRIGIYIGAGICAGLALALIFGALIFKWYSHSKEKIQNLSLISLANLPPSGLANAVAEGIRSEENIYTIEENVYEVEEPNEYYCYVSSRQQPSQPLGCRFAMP"}, "source": "paper PMC12660616", "target": "T-cell immunoglobulin and mucin domain-containing protein 3 (human (endogenous in HaCaT)) (UniProt Q8TDQ0)", "assay": "co-IP; HaCaT cell lysate incubated overnight at 4 °C with 10 µg anti-TIM3 antibody, protein A/G magnetic beads, five washes with TBST, western blotting; legend speaks of cells following TIM3 knockdown", "note": "Results are given in words; binding and its absence hold for the method and conditions named. In cells and extracts the contact can be indirect. Some entries that bind do so weakly or less than the wild type."}
{"substance": "Galectin 9 (from UniProt O00182 1-355) (ligand)", "values": [{"measurement": "binding", "value": "binds"}]}
